Reference: publication PMC4889327
Results are given in words; binding and its absence hold for the method and conditions named. In cells and extracts the contact can be indirect. Here binding means that the protein was enriched with, or labelled near, the bait; the list need not be complete. Where a sequence is shown, tags or fusion partners need not be part of it.

By UniProt entry, the sequences of proteins in these tests, tags left out. Where a name states a change or a piece, a line headed by the entry shows the natural chain unless it says otherwise.
UniProt P61088: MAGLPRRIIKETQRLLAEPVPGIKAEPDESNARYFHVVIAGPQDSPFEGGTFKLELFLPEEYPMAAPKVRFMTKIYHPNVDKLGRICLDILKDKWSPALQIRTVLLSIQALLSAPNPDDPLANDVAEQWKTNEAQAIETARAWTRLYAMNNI
UniProt P27449: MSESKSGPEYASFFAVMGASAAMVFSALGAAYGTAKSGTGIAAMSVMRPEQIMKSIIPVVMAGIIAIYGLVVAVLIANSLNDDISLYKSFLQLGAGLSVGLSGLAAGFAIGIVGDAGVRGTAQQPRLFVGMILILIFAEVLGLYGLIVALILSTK
UniProt P61421: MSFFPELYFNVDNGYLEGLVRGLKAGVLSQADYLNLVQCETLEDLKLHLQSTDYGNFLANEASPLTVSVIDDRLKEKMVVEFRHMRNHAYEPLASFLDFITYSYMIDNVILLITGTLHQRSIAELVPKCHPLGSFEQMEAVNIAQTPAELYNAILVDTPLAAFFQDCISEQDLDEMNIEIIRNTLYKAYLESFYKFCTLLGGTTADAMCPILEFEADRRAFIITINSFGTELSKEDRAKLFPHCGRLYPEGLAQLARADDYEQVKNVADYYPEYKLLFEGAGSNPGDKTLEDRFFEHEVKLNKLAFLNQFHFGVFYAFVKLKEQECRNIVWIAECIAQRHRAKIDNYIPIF
UniProt Q9UHA4: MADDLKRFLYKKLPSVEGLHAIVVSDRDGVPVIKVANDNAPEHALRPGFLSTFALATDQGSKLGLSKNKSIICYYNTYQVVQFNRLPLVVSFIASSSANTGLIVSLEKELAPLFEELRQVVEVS
UniProt Q93050: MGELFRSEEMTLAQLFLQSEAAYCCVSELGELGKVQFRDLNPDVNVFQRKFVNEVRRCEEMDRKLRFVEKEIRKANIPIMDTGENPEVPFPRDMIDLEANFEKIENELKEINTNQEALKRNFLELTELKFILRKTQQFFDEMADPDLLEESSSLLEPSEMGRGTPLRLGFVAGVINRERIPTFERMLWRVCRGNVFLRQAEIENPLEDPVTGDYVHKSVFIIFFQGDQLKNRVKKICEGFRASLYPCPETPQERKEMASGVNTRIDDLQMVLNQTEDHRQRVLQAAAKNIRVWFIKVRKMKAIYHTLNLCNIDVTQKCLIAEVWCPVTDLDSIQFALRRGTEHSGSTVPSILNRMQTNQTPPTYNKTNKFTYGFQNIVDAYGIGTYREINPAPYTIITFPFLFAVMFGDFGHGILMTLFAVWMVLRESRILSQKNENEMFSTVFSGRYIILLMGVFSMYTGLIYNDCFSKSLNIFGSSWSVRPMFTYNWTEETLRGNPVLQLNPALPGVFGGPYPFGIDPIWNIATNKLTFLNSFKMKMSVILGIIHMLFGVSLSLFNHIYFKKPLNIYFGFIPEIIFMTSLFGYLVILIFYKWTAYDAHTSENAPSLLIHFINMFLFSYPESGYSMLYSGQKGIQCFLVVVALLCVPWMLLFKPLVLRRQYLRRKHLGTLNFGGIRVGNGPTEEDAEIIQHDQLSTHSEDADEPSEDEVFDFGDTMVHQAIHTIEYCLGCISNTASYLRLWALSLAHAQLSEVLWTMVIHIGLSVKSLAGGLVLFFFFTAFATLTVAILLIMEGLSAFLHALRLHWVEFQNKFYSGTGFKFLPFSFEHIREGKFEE
UniProt Q9Y2Q5: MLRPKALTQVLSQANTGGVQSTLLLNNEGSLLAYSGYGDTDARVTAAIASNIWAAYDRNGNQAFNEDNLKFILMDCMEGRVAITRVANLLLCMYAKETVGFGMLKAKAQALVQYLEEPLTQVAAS

Experiments:
[1] = target: T1, GFP-ZNRF2 (N-terminal tag, non-myristoylated) (human) (UniProt Q8NHG8); test: affinity purification with mass spectrometry; GFP-Trap immunoprecipitation from 200 mg clarified Triton X-100 lysate of HEK293 Flp-In T-Rex cells stably expressing GFP, GFP-ZNRF2 or ZNRF2-GFP (tetracycline 36 hr), 2 hr at 4°C; SDS-PAGE, gel slices, trypsin, mass spectrometric fingerprinting
T1 sequence: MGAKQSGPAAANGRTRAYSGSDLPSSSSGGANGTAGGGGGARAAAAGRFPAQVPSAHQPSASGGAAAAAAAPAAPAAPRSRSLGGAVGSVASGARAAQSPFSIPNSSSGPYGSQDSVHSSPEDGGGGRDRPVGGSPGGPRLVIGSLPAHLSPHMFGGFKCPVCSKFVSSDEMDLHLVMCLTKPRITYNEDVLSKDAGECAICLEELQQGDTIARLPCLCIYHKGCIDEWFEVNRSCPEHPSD

[2] = target: T2, ZNRF2-GFP (C-terminal tag, myristoylated) (human) (UniProt Q8NHG8); test: as above
T2 sequence (chain, N-myristoyl moiety at the N-terminus): T1 sequence

Row | Substance | binding [1] | binding [2]
1 | E2 conjugating enzyme UBE2N/UBC13 (from UniProt P61088 1-152) | binds | binds
2 | V0C subunit of the V-ATPase (from UniProt P27449 1-155) | – | binds
3 | V0D1 subunit of the V-ATPase (from UniProt P61421 1-351) | – | binds

Now from value to substance:

Row | binding [1] | binding [2] | Substance
4 | – | binds | Mp1 subunit of Ragulator (from UniProt Q9UHA4 1-124)
5 | – | binds | V0A1 component of the V-ATPase (from UniProt Q93050 1-837)
6 | – | binds | V1E subunit of the V-ATPase (human (endogenous in HEK293))
7 | – | binds | p14 subunit of Ragulator (from UniProt Q9Y2Q5 1-125)
